Measured values as given in paper PMC10925443.
Results are given in words; binding and its absence hold for the method and conditions named. Binding seen in cells or lysates may run through a third protein. Some results given as binding are weak or reduced against the parent protein; the word gives no strength.

By UniProt entry, the sequences of proteins in these tests, tags left out.
UniProt Q99814: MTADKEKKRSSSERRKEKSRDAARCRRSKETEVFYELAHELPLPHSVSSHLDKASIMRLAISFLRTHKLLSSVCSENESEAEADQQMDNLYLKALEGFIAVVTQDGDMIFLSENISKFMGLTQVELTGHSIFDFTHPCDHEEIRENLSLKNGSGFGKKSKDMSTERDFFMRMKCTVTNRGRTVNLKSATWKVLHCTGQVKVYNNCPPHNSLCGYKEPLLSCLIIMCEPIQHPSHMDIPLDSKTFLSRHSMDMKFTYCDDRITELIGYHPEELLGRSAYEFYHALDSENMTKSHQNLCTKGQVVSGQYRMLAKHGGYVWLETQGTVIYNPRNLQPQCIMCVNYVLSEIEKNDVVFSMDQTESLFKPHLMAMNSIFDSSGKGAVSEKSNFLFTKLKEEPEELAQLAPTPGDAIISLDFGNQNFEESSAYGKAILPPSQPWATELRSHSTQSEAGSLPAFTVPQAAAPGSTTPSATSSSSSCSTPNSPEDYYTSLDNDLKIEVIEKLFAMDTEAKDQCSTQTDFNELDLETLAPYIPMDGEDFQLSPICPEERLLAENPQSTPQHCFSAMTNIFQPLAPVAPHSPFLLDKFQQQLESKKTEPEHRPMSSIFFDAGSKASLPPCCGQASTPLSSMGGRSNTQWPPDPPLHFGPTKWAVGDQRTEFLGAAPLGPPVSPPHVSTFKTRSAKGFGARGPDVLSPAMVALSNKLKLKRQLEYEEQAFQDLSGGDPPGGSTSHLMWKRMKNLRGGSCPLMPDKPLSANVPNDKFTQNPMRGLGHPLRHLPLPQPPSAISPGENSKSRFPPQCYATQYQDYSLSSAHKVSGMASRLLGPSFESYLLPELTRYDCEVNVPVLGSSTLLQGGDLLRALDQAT
UniProt Q9WTL8: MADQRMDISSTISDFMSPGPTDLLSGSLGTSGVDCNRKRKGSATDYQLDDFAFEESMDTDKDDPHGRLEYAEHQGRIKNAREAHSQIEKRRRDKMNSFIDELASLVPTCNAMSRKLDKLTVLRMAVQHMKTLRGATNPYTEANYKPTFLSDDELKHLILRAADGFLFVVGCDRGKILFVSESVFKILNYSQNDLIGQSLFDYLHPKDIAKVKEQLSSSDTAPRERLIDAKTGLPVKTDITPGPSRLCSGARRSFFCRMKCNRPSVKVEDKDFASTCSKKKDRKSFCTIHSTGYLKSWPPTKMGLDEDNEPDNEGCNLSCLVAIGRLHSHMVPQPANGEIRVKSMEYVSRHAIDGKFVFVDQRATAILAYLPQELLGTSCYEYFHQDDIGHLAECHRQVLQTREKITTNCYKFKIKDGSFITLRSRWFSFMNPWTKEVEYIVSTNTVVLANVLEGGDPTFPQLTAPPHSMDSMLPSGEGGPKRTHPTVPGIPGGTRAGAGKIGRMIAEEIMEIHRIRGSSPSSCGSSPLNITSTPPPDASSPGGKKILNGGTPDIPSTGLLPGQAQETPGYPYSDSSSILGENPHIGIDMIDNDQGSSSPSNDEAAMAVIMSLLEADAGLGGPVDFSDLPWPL
UniProt O00327: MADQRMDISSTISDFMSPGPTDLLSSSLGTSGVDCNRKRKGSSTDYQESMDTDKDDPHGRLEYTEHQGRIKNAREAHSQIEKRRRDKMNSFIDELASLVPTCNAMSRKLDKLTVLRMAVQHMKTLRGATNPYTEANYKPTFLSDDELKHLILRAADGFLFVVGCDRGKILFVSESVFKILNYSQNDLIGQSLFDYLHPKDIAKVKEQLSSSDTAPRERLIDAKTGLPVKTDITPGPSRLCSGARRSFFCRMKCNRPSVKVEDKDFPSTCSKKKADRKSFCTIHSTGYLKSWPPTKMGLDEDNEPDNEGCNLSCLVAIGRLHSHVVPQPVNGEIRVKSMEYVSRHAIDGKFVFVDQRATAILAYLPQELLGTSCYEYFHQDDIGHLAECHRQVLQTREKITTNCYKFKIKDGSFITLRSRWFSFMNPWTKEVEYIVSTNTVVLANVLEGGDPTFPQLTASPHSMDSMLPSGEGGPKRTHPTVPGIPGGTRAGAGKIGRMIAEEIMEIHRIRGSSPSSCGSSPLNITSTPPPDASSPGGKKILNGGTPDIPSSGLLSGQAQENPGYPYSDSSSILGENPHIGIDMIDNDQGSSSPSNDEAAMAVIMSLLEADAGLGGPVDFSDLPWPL
UniProt Q16665: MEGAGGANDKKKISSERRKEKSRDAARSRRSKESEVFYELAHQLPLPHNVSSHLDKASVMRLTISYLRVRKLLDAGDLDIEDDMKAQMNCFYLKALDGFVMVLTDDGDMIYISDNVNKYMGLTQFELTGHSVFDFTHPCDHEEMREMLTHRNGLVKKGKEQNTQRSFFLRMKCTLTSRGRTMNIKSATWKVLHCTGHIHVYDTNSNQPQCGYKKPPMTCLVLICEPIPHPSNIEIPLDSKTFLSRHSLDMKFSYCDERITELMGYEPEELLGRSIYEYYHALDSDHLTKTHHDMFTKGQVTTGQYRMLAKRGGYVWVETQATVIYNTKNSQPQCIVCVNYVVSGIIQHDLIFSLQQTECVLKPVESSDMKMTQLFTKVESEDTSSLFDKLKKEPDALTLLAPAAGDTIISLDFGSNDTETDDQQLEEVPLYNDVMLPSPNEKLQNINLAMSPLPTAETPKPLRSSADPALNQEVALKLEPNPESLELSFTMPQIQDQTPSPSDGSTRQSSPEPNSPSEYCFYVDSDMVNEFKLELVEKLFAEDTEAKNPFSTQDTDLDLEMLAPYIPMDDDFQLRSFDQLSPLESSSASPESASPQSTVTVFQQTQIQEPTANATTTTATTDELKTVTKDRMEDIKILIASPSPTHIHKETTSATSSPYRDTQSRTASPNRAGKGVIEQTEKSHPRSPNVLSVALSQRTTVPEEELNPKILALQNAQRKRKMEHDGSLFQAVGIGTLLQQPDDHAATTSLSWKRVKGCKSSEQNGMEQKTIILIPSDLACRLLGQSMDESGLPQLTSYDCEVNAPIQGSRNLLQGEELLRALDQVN

Columns and labels:
[1] = molecular target: endogenous HIF2A (hypoxia-stabilized) of human cells (human (endogenous in HEK293 and HCMs)) (UniProt Q99814); assay: co-IP; primary human cardiomyocytes synchronized with dexamethasone (200 nM, 1 h), hypoxia (1% O2, 4 h) at CT20 or CT32; nuclear extracts immunoprecipitated with anti-HIF2A
[2] = molecular target: endogenous HIF2A (hypoxia-stabilized) of human cells (human (endogenous in HEK293 and HCMs)) (UniProt Q99814); assay: co-IP; primary human cardiomyocytes, 1% O2 for 0, 0.5, 1, 2, 4 or 8 h; lysate in HEPES EB buffer (20 mM HEPES pH 7.4, 100 mM NaCl, 1 mM EDTA, 0.1% Triton X-100, 5% glycerol) immunoprecipitated with anti-HIF2A
[3] = molecular target: endogenous HIF2A (hypoxia-stabilized) of human cells (human (endogenous in HEK293 and HCMs)) (UniProt Q99814); assay: proximity ligation; in situ PLA (Duolink) on fixed primary human cardiomyocytes after 1% O2 for 0, 1, 4 or 8 h; signals per nucleus
[4] = molecular target: endogenous HIF2A (hypoxia-stabilized) of human cells (human (endogenous in HEK293 and HCMs)) (UniProt Q99814); assay: co-IP; reciprocal: HEK293 cells overexpressing BMAL1-Flag, normoxia or hypoxia (1% O2, 4 h); cytosolic and nuclear extracts immunoprecipitated with anti-HIF2A, Western blot
[5] = molecular target: BMAL1-Flag (pcDNA3 mBmal1) overexpressed in HEK293 cells (mouse) (UniProt Q9WTL8); assay: co-IP; HEK293 cells overexpressing BMAL1-Flag, normoxia or hypoxia (1% O2, 4 h); cytosolic and nuclear extracts immunoprecipitated with anti-Flag, Western blot
[6] = molecular target: endogenous BMAL1 of primary human cardiomyocytes (human (endogenous in HCMs)) (UniProt O00327); assay: proximity ligation; in situ PLA (Duolink) on fixed primary human cardiomyocytes after 1% O2 for 0, 1, 4 or 8 h; signals per nucleus
[7] = molecular target: BMAL1-Flag (pcDNA3 mBmal1) overexpressed in HEK293 cells (mouse) (UniProt Q9WTL8); assay: co-IP; HEK293 cells overexpressing WT or mutated Flag-tagged BMAL1, hypoxia (1% O2, 4 h); immunoprecipitated with anti-Flag, blotted with anti-HIF2A and anti-Flag

“endogenous BMAL1 of primary human cardiomyocytes (from UniProt O00327 1-626)” was tested, and the binding [1] was “binds”, the binding [2] was “binds” and the binding [3] was “binds”.

With “BMAL1-Flag (pcDNA3 mBmal1) overexpressed in HEK293 cells (from UniProt Q9WTL8 1-632)” the binding [4] was “binds”.

“endogenous HIF1A of human cells (from UniProt Q16665 1-826)” was tested, and the binding [5] was “binds weakly” and the binding [6] was “binds weakly”.

In the case of “endogenous HIF2A (hypoxia-stabilized) of human cells (from UniProt Q99814 1-870)”, the binding [7] is reported as “binds” and the binding [5] is reported as “binds”.

B1: endogenous CLOCK of HEK293 cells (protein, UniProt O15516 1-846)
chain: MLFTVSCSKMSSIVDRDDSSIFDGLVEEDDKDKAKRVSRNKSEKKRRDQFNVLIKELGSMLPGNARKMDKSTVLQKSIDFLRKHKEITAQSDASEIRQDWKPTFLSNEEFTQLMLEALDGFFLAIMTDGSIIYVSESVTSLLEHLPSDLVDQSIFNFIPEGEHSEVYKILSTHLLESDSLTPEYLKSKNQLEFCCHMLRGTIDPKEPSTYEYVKFIGNFKSLNSVSSSAHNGFEGTIQRTHRPSYEDRVCFVATVRLATPQFIKEMCTVEEPNEEFTSRHSLEWKFLFLDHRAPPIIGYLPFEVLGTSGYDYYHVDDLENLAKCHEHLMQYGKGKSCYYRFLTKGQQWIWLQTHYYITYHQWNSRPEFIVCTHTVVSYAEVRAERRRELGIEESLPETAADKSQDSGSDNRINTVSLKEALERFDHSPTPSASSRSSRKSSHTAVSDPSSTPTKIPTDTSTPPRQHLPAHEKMVQRRSSFSSQSINSQSVGSSLTQPVMSQATNLPIPQGMSQFQFSAQLGAMQHLKDQLEQRTRMIEANIHRQQEELRKIQEQLQMVHGQGLQMFLQQSNPGLNFGSVQLSSGNSSNIQQLAPINMQGQVVPTNQIQSGMNTGHIGTTQHMIQQQTLQSTSTQSQQNVLSGHSQQTSLPSQTQSTLTAPLYNTMVISQPAAGSMVQIPSSMPQNSTQSAAVTTFTQDRQIRFSQGQQLVTKLVTAPVACGAVMVPSTMLMGQVVTAYPTFATQQQQSQTLSVTQQQQQQSSQEQQLTSVQQPSQAQLTQPPQQFLQTSRLLHGNPSTQLILSAAFPLQQSTFPQSHHQQHQSQQQQQLSRHRTDSLPDPSKVQPQ
In the case of B1, the binding [5] is reported as “binds”.
